From publication PMC10243088
Results are given in words; binding and its absence hold for the method and conditions named. Binding seen in cells or lysates may run through a third protein. Some results given as binding are weak or reduced against the parent protein; the word gives no strength.

Molecular target: T1, hephaestin (human (endogenous in iPSC-derived ECs and HEK 293)) (UniProt Q9BQS7)
T1 sequence: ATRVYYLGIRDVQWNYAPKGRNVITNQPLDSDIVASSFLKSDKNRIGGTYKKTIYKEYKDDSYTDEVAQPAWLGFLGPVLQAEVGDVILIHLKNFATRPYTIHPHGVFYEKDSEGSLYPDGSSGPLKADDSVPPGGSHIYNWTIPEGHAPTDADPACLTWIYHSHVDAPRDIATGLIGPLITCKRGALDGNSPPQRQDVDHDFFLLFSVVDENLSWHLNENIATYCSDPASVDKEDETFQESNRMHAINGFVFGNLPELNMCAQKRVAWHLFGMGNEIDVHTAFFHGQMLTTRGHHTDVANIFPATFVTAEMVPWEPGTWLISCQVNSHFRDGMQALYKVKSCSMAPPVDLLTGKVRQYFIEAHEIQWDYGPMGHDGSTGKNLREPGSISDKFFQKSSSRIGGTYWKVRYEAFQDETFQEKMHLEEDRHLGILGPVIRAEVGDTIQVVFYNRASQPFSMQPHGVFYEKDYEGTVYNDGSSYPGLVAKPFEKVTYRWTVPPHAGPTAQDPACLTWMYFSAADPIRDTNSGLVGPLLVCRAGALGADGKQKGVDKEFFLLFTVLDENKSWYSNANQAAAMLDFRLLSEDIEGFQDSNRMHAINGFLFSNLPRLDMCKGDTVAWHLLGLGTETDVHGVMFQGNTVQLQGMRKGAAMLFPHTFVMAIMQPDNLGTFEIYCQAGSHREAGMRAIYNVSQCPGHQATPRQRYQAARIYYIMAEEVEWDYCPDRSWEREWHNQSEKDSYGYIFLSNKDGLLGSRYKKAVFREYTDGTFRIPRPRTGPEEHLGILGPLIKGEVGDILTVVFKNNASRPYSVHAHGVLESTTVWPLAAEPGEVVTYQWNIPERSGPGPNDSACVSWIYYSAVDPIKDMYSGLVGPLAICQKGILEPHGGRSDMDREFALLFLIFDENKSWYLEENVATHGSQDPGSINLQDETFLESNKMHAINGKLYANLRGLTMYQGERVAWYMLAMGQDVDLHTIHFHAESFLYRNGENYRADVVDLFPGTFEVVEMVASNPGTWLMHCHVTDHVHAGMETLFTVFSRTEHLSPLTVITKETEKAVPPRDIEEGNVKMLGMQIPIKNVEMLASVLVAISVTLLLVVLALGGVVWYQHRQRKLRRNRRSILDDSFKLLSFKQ
Assay: co-IP; iPSC-derived ECs lysate, Protein G magnetic beads with anti-Heph antibody; endogenous Fpn and Heph

B1: ferroportin (protein, UniProt Q9NP59 1-571)
chain: MTRAGDHNRQRGCCGSLADYLTSAKFLLYLGHSLSTWGDRMWHFAVSVFLVELYGNSLLLTAVYGLVVAGSVLVLGAIIGDWVDKNARLKVAQTSLVVQNVSVILCGIILMMVFLHKHELLTMYHGWVLTSCYILIITIANIANLASTATAITIQRDWIVVVAGEDRSKLANMNATIRRIDQLTNILAPMAVGQIMTFGSPVIGCGFISGWNLVSMCVEYVLLWKVYQKTPALAVKAGLKEEETELKQLNLHKDTEPKPLEGTHLMGVKDSNIHELEHEQEPTCASQMAEPFRTFRDGWVSYYNQPVFLAGMGLAFLYMTVLGFDCITTGYAYTQGLSGSILSILMGASAITGIMGTVAFTWLRRKCGLVRTGLISGLAQLSCLILCVISVFMPGSPLDLSVSPFEDIRSRFIQGESITPTKIPEITTEIYMSNGSNSANIVPETSPESVPIISVSLLFAGVIAARIGLWSFDLTVTQLLQENVIESERGIINGVQNSMNYLLDLLHFIMVILAPNPEAFGLLVLISVSFVAMGHIMYFRFAQNTLGNKLFACGPDAKEVRKENQANTSVV
With B1 as the binder, how does the binding read?
The binding was “binds”.
